Experimental data: PubChem BioAssay AID588590 (National Center for Advancing Translational Sciences (NCATS), 2011)
Among all 390,000 compounds or so, about 4,000 (1%) were called active. This list was built around the results that the source calls inconclusive (neither active nor inactive); the mix of calls is not that of the screen. Calls come from the whole dose curve; as a rule, active = well fitted inhibition curve with a large enough effect; inconclusive = small, poorly fitted or top-dose-only effect, or another doubt; inactive = no such curve, though single readings can be large or run the other way. Where the call is inconclusive, the potency comes from a doubtful curve fit.
Potency is the fitted concentration of half-maximal effect.

Amino acid sequences for entries named in this document (tags omitted). A change or cut given only in a name is not applied to a line headed by its entry.
UniProt Q9UNA4: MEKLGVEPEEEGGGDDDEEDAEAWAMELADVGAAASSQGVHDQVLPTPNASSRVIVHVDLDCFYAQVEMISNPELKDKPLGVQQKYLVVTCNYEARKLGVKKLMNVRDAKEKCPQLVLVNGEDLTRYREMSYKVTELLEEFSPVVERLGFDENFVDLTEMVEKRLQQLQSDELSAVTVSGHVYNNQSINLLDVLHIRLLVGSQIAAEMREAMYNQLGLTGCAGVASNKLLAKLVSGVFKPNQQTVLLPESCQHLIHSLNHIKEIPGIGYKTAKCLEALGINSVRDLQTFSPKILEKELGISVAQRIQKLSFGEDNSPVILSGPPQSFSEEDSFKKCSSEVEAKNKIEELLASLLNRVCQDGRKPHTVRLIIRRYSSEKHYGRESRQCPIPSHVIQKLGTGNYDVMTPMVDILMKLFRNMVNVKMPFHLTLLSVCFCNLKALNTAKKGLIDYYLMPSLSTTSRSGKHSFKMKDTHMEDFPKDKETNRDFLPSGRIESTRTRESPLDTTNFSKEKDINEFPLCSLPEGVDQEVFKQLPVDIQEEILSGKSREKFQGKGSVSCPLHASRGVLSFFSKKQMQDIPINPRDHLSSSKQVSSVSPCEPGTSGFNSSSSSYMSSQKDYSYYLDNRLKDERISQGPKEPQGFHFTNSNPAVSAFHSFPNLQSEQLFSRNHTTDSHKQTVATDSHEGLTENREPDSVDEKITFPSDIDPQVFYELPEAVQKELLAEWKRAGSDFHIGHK

What follows are compounds tested against DNA polymerase iota (Homo sapiens) (UniProt Q9UNA4) (assay: qHTS for Inhibitors of Polymerase Iota). Conditions: Pol iota fluorescent replication assay, 10 min; series mostly up to 115 µM.
In short: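 Fluorescent replication assay read twice, at 0 min and 10 min after adding 50 nM (final) substrate. Enzyme (10 nM) and compounds were first incubated 15 min at room temperature; enzyme-free buffer wells were negative controls.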
For `CC(c1nccs1)N(C)c1nc2nonc2nc1NC1CC1` (configuration not stated), the Potency was inconclusive: 89.1 µM [inhibitor, single point].
`C[C@H]1c2cccc(O)c2C(O)=C2C(=O)C3(O)C(O)=C(C(N)=O)C(=O)[C@@H](N(C)C)[C@@H]3[C@@H](O)[C@@H]21` (some centres not stated) was tested, and the Potency was “inactive”.
With `O=C(OCc1nnc(-c2ccc([N+](=O)[O-])cc2)o1)c1ccc(F)c(S(=O)(=O)N2CCOCC2)c1` the Potency was inconclusive: 31.6 µM [inhibitor, partial curve, poor fit].
For `O=C(c1ccc(Oc2ccc(C(F)(F)F)cn2)cc1)N1CCN(c2ccccc2)CC1`, the Potency was inconclusive: 70.8 µM [inhibitor, partial curve, poor fit].
`CCCCNc1c(-c2ccc(OC)c(SC(C)CC)c2)nc2cc(C)ccn12` (configuration not stated) was tested, and the Potency was inconclusive: 0.631 µM [inhibitor, full curve, poor fit].
`COc1ccc(N=Nc2nc3ccc(Br)cc3n2C)cc1` was tested, and the Potency was inconclusive: 4.47 µM [inhibitor, full curve, poor fit].
With `Cc1cc(C)cc(NC(=O)C2CCCN(S(=O)(=O)c3ccc4[nH]c(=O)ccc4c3)C2)c1` (configuration not stated) the Potency was inconclusive: 79.4 µM [inhibitor, partial curve, poor fit].
In the case of `Cc1ccc2nc(NC(=O)COC(=O)c3ccc(Br)o3)sc2c1`, the Potency is reported as inconclusive: 12.6 µM [inhibitor, partial curve].
For `COc1ccccc1/C=C/c1nc(C#N)c(NC2CCCCC2)o1`, the Potency was inconclusive: 112 µM [inhibitor, partial curve, poor fit].
For `O=C(COc1ccccc1C(=O)Nc1ccccc1)Nc1ccccc1-c1ccccc1`, the Potency was inconclusive: 56.2 µM [inhibitor, partial curve, poor fit].
For `COc1cccc(OCc2cc(/C=N/Nc3ccc(C(=O)O)cc3)ccc2OC)c1`, the Potency was “inactive”.
In the case of `Cc1c(NC(=O)C(C)OC(=O)c2ccc([N+](=O)[O-])s2)c(=O)n(-c2ccccc2)n1C` (configuration not stated), the Potency is reported as inconclusive: 56.2 µM [inhibitor, partial curve, poor fit].
With `Cn1c(/C(C#N)=C/c2ccccc2Br)nc2ccccc21` the Potency was active: 79.4 µM.
For `Cc1ccc(-c2nc(CS(=O)(=O)CC(=O)Nc3cc(F)ccc3F)c(C)o2)cc1`, the Potency was inconclusive: 15.8 µM [inhibitor, partial curve, poor fit].
`Cc1ccc(-c2n[nH]c(=S)nc2-c2ccc(C)cc2)cc1` was tested, and the Potency was inconclusive: 89.1 µM [inhibitor, partial curve, poor fit].
For `O=C(O)/C=C/c1ccc(S(=O)(=O)Nc2ccc3[nH]c(=O)[nH]c3c2)cc1`, the Potency was inconclusive: 25.1 µM [inhibitor, partial curve, poor fit].
For `O=C1C2=C(c3ccccc31)[N+](=O)C1CCCCC1N2[O-]` (configuration not stated), the Potency was inconclusive: 2.82 µM [inhibitor, full curve, poor fit].
For `COC(=O)CCC(=O)OC1(C)C(=O)C=C2C=C(C3CC3)N(C3CC3)C=C2C1=O` (configuration not stated), the Potency was active: 14.1 µM.
For `Cc1cc(/C=C(/C#N)c2nc3ccccc3[nH]2)c(C)n1-c1cccc([N+](=O)[O-])c1`, the Potency was “inactive”.
In the case of `CCc1cccc(NS(=O)(=O)c2ccc3c(c2)CC(C)N3C(=O)C2CC2)c1` (configuration not stated), the Potency is reported as “inactive”.
`CC(C)c1ccc(/C=C2\C(=N)N3N=C(CC(=O)N4CCCCC4)SC3=NC2=O)cc1` was tested, and the Potency was active: 20 µM.
With `Cc1ccc(N=CC=C2OC(C)(C)C(C)(C)O2)cc1` the Potency was “inactive”.
With `CCOc1ccc(OCC(=O)Nc2ccc(S(=O)(=O)Nc3cc(C)on3)cc2)cc1` the Potency was inconclusive: 89.1 µM [inhibitor, single point].
`O=C(Nc1cccc(-c2cn3cccnc3n2)c1)c1ccc(Br)o1` was tested, and the Potency was active: 79.4 µM.
In the case of `O=C1CSC(c2cn(-c3ccccc3)nc2-c2ccccc2)N1Cc1ccco1` (configuration not stated), the Potency is reported as inconclusive: 3.16 µM [inhibitor, partial curve, poor fit].
With `O=C(Nc1ccc(-c2ccco2)cc1)C1CCCN(Cc2ccc(CO)o2)C1` (configuration not stated) the Potency was inconclusive: 63.1 µM [inhibitor, single point].
In the case of `COc1ccccc1NS(=O)(=O)c1cc(C(=O)NCc2ccco2)ccc1C`, the Potency is reported as inconclusive: 5.62 µM [inhibitor, full curve, poor fit].
`Cc1ccc(CNC(=O)c2ccc(N3CCC4(CC3)CC(c3cccc(Br)c3)=NO4)c(NC(=O)c3ccccc3)c2)cc1` was tested, and the Potency was inconclusive: 25.1 µM [inhibitor, full curve].
In the case of `C#Cc1ccc([C@@H]2C=C(C(=O)OCC=C)O[C@H](OCc3ccc(CO)cc3)C2)cc1`, the Potency is reported as inconclusive: 56.2 µM [inhibitor, partial curve, poor fit].
`Cc1ccc(C2CC(=O)Nc3cc4c(cc32)OCCO4)cc1Br` (configuration not stated) was tested, and the Potency was “inactive”.
For `O=C1CCCC2=C1C(c1ccccc1)CC(=O)N2c1ccc(F)cc1F` (configuration not stated), the Potency was inconclusive: 89.1 µM [inhibitor, single point].
For `CCOc1ccc(NS(=O)(=O)c2ccc(OCC)c3ncccc23)cc1`, the Potency was inconclusive: 39.8 µM [inhibitor, full curve, poor fit].
In the case of `C=CCSc1nc2c(sc3nc(C)cc(C)c32)c(=O)[nH]1`, the Potency is reported as inconclusive: 12.6 µM [inhibitor, partial curve, poor fit].
`CCN(CC)CCN1c2ccccc2Sc2ccc3ccccc3c21` was tested, and the Potency was “inactive”.
For `O=C(NCCc1ccccc1)C(c1cccs1)N(C(=O)CCl)c1ccc(Cl)cc1` (configuration not stated), the Potency was inconclusive: 56.2 µM [inhibitor, partial curve, poor fit].
`C[C@@H]1O[C@@H](OC[C@@H]2O[C@H](Oc3c(-c4ccc(O)cc4)oc4cc(O)cc(O)c4c3=O)[C@@H](O)[C@H](O)[C@H]2O)[C@H](O)[C@H](O)[C@H]1O` was tested, and the Potency was inconclusive: 89.1 µM [inhibitor, single point].
With `O=C1NC2=C(C(=O)CCC2)C(c2ccccc2[N+](=O)[O-])N1` (configuration not stated) the Potency was inconclusive: 31.6 µM [inhibitor, single point].
For `Cn1cccc1/C=C1/SC(=S)N(CC(=O)O)C1=O`, the Potency was inconclusive: 20 µM [inhibitor, partial curve, poor fit].
In the case of `Cc1ccc(S(=O)(=O)CCC(=O)Nc2nc(-c3cccnc3)cs2)cc1`, the Potency is reported as inconclusive: 56.2 µM [inhibitor, partial curve, poor fit].
In the case of `Cc1ccc(N2CC(C(=O)Nc3ccc(S(=O)(=O)NCC4CCCO4)cc3)CC2=O)cc1` (configuration not stated), the Potency is reported as inconclusive: 79.4 µM [inhibitor, partial curve, poor fit].
`O=C(NCc1ccco1)c1ccc(C(=O)NCc2ccco2)s1` was tested, and the Potency was inconclusive: 28.2 µM [inhibitor, single point].
In the case of `O=C(Nc1c2c(nn1-c1ccccc1)CS(=O)(=O)C2)c1ccco1`, the Potency is reported as inconclusive: 89.1 µM [inhibitor, single point].
`COc1ccccc1CN(Cc1nc2ccccc2c(=O)[nH]1)S(=O)(=O)c1ccc2ccccc2c1` was tested, and the Potency was inconclusive: 10 µM [inhibitor, full curve, poor fit].
`O=C(Nc1cccc(-c2nc3ccccc3[nH]2)c1)c1ccc(C(=O)Nc2cccc(-c3nc4ccccc4[nH]3)c2)cc1` was tested, and the Potency was inconclusive: 12.6 µM [inhibitor, partial curve].
In the case of `COCCSc1nc2c([nH]c3ccccc32)c(=O)n1-c1ccc(OC)c(OC)c1`, the Potency is reported as “inactive”.
With `CC(=O)N1CCc2cc(Br)cc(S(=O)(=O)N3CCC(C(=O)Nc4cccc(C)c4C)CC3)c21` the Potency was inconclusive: 89.1 µM [inhibitor, single point].
For `COc1cc(CNCCN2CCOCC2)ccc1OCc1ccc(Cl)cc1Cl`, the Potency was inconclusive: 22.4 µM [inhibitor, partial curve, poor fit].
`COc1ccc(NC(=S)N2CCN(Cc3ccccc3)CC2)c(OC)c1` was tested, and the Potency was inconclusive: 70.8 µM [inhibitor, partial curve, poor fit].
`Cc1cccnc1NC(=O)c1ccc(COc2ccccc2)o1` was tested, and the Potency was inconclusive: 100 µM [inhibitor, single point].
For `O=c1c2cc(N3CCOCC3)ccc2[nH]c(=S)n1CCCN1CCCC1`, the Potency was inconclusive: 44.7 µM [inhibitor, partial curve].
For `Nn1c(SCc2csc(-c3ccccc3)n2)nnc1-c1cccs1`, the Potency was inconclusive: 15.8 µM [inhibitor, partial curve, poor fit].
In the case of `O=C(CSc1nc(O)cc(=O)n1-c1ccccc1)NCc1ccccc1`, the Potency is reported as active: 39.8 µM.
`CCOC(=O)c1nn(-c2ccc(F)cc2)c(=O)c2c(N)scc12` was tested, and the Potency was inconclusive: 28.2 µM [inhibitor, partial curve].
`COc1cccc(/C=N/NC(=O)CCc2n[nH]c(=O)[nH]c2=O)c1O` was tested, and the Potency was “inactive”.
`CCc1ccc(N=C2NC(=O)/C(=C/c3cc(OC)c(OC)c(OC)c3)S2)cc1` was tested, and the Potency was “inactive”.
`Cc1cc(Cl)ccc1OCC(=O)Nn1c(C)ccc1C` was tested, and the Potency was inconclusive: 39.8 µM [inhibitor, single point].
For `CN(Cc1ccccc1)C(=O)CSc1nnc(-c2cccc(Cl)c2)o1`, the Potency was “inactive”.
For `CCc1ccc(-n2nc(CO)c(C(=O)NCCOC)n2)cc1`, the Potency was inconclusive: 89.1 µM [inhibitor, single point].
With `O=C(Cn1ncc2c(Cl)cccc21)NCc1cccc(Cl)c1` the Potency was inconclusive: 89.1 µM [inhibitor, partial curve, poor fit].
For `CCOc1cc(C(=O)NCc2ccco2)cc(OCC)c1OCC`, the Potency was “inactive”.
In the case of `NS(=O)(=O)c1ccc2nc(NC(=O)c3ccc4c(c3)OCCO4)sc2c1`, the Potency is reported as inconclusive: 50.1 µM [inhibitor, single point].
With `Cc1ccc(-c2cc(C(=O)N3CCN(S(=O)(=O)c4ccc(Br)cc4)CC3)[nH]n2)c(C)c1` the Potency was “inactive”.
